Measured values: publication PMC11406360, “The enzymatic oxygen sensor cysteamine dioxygenase binds its protein substrates through their N-termini” (The Journal of Biological Chemistry, 2024)
These are yes or no findings as the source states them, for the method shown.

By UniProt entry, the sequences of proteins in these tests, tags left out. Where a name states a change or a piece, a line headed by the entry shows the natural chain unless it says otherwise.
UniProt Q96SZ5: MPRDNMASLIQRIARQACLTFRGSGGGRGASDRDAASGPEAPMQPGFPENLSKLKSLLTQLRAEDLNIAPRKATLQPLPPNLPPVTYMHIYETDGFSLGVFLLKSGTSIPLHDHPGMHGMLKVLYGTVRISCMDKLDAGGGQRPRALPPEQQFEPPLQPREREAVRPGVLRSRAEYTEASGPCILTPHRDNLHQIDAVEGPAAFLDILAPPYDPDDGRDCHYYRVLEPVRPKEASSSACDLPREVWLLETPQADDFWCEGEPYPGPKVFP
UniProt O15539: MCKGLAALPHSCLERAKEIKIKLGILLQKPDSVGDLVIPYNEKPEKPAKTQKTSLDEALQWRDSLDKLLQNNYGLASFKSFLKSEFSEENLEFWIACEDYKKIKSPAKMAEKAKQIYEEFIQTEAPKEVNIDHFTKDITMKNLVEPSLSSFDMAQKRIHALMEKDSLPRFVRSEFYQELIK
UniProt P24001: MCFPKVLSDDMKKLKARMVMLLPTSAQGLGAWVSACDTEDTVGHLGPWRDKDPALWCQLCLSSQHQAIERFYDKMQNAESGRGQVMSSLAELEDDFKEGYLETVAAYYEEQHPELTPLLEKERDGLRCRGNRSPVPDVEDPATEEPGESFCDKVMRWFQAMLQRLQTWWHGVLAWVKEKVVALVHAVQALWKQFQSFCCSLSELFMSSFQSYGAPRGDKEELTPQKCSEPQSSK

Molecular target: 2-aminoethanethiol (cysteamine) dioxygenase (ADO), biotinylated, for SPR (human) (UniProt Q96SZ5)
Assay: SPR; Biacore T200; biotinylated ADO immobilized on a Biotin CAP chip (∼2500 to 3000 RU), peptide/protein substrates injected; 4 °C; 20 mM Hepes pH 7.5, 500 mM NaCl, 10 mM DTT, 0.1% tween-20; 50 μl/min; multicycle, equilibrium steady state affinity 1:1 binding model; both purified

Row | binding | Binder
1 | no binding | AKGLAALPHSCLER (peptide, UniProt O15539 2-15) [RGS5-C2A peptide]
2 | no binding | AFPKVLSDDMKKLK (peptide, UniProt P24001 2-15) [IL32-C2A peptide]
